No constants are given. Whether binding was seen depends on the method and setting. In cells and extracts the contact can be indirect. Some binding calls cover weakened binding; strength is not graded here. For part of these data: Tags and fused reporters may be left off the sequences shown.

Amino acid sequences for entries named in this document (tags omitted).
UniProt P03372: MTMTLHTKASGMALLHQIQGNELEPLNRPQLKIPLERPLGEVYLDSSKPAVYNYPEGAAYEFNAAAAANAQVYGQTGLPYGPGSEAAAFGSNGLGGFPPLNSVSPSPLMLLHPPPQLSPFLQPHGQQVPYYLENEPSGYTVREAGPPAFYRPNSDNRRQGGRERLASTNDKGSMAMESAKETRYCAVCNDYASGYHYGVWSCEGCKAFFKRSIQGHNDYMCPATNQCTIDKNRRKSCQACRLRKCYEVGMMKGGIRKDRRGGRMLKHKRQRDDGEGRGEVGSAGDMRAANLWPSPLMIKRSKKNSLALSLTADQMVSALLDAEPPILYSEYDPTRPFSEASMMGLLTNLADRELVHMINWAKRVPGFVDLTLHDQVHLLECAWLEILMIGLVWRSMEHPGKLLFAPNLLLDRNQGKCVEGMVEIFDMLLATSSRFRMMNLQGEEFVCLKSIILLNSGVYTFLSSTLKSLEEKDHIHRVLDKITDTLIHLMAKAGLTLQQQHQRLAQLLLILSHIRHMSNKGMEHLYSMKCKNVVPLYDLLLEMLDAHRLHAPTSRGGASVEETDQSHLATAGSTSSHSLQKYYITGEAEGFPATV

The target of one test is T1, Myc-RNF181 (UniProt Q9P0P0).
T1 sequence: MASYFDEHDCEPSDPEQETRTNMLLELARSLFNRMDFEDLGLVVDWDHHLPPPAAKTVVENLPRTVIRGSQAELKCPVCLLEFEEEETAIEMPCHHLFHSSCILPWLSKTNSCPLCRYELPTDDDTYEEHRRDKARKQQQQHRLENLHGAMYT
Put plainly: co-IP; HEK293 cells transfected with Myc-RNF181 and HA-ERα full length or mutants, 10 uM MG132 for 6 h, NP-40 lysis buffer; IP with Myc antibody, detection with HA antibody.

Test [1] addresses ERα, endogenous (human (endogenous in MCF-7)) (UniProt P03372). As to the kind of experiment: co-IP; endogenous proteins; MCF-7 cells harvested with RIPA lysis buffer, lysate pre-cleared with rabbit IgG, immunoprecipitated with ERα antibody overnight, bound protein analysed with anti-RNF181; rabbit IgG as negative control.
The next test concerns the target HA-ERα full length (UniProt P03372). Put plainly: co-IP; HEK293 cells transfected with HA-ERα and GFP-RNF181 full length or mutants, 10 uM MG132 for 6 h, NP-40 lysis buffer; IP with HA antibody, detection with GFP antibody.

“HA-ERα full length (from UniProt P03372 1-595) (receptor)”: the binding entry in the test with Myc-RNF181 is reported as “binds”.

B1: RNF181 (RING Finger Protein 181), endogenous (protein, UniProt Q9P0P0 1-153)
chain: MASYFDEHDCEPSDPEQETRTNMLLELARSLFNRMDFEDLGLVVDWDHHLPPPAAKTVVENLPRTVIRGSQAELKCPVCLLEFEEEETAIEMPCHHLFHSSCILPWLSKTNSCPLCRYELPTDDDTYEEHRRDKARKQQQQHRLENLHGAMYT
As to B1, the binding entry in test [1] was “binds”.

B2: GFP-RNF181 full length (protein, UniProt Q9P0P0 1-153)
chain: MASYFDEHDCEPSDPEQETRTNMLLELARSLFNRMDFEDLGLVVDWDHHLPPPAAKTVVENLPRTVIRGSQAELKCPVCLLEFEEEETAIEMPCHHLFHSSCILPWLSKTNSCPLCRYELPTDDDTYEEHRRDKARKQQQQHRLENLHGAMYT
With B2, the binding result with HA-ERα full length was “binds”.

The values are drawn from article PMC7605433.
